In patent publication US20020137113A1 one finds binding data, which are given here for one molecule.

The chains behind the UniProt entries cited, without tags or fusion partners. Where a name states a change or a piece, a line headed by the entry shows the natural chain unless it says otherwise.
UniProt Q16620: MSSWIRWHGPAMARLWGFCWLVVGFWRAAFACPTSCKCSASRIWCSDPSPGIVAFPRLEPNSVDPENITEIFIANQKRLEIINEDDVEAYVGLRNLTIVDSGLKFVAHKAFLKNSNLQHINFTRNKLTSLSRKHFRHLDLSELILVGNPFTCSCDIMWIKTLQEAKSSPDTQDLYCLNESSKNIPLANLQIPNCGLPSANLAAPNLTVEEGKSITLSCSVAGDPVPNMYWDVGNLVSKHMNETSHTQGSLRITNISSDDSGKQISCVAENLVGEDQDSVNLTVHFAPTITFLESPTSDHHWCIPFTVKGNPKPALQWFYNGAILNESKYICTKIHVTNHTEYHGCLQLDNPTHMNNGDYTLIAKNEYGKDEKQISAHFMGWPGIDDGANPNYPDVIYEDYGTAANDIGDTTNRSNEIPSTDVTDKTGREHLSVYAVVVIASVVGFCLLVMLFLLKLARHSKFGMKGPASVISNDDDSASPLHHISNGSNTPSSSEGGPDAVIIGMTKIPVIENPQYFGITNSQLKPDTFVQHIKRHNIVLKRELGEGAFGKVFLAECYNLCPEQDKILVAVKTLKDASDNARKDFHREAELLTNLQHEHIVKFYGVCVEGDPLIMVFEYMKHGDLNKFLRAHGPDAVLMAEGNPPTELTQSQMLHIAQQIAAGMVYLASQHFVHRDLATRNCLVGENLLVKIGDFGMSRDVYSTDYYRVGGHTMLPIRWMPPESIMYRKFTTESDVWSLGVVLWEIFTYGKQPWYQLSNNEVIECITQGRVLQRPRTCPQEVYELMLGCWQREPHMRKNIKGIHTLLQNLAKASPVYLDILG

Results are given in words; binding and its absence hold for the method and conditions named. Some entries that bind do so weakly or less than the wild type.

For this assay, the target named is gD.trk B (trk B receptor with the gD flag polypeptide fused to its amino terminus), in dp12.CHO cells (human) (UniProt Q16620). Description: neurotrophin binding screen of gD.trk CHO clones.

B1: neurotrophin 5 (NT5) (ligand, UniProt P34130 81-210, looked up)
chain: GVSETAPASRRGELAVCDAVSGWVTDRRTAVDLRGREVEVLGEVPAAGGSPLRQYFFETRCKADNAEEGGPGAGGGGCRGVDRRHWVSECKAKQSYVRALTADAQGRVGWRWIRIDTACVCTLLSRTGRA
For the molecule B1, the binding result is “binds”.
